The experiment addresses OsASR6-YFP^N (rice (Oryza sativa)). Put plainly: split reporter; BiFC: OsASR6-YFP^N and OsNCED1-YFP^C co-transformed into rice protoplasts; YFP read after 24 h by confocal microscopy.

Data on 1 molecule can be found in publication PMC9408961.

These are yes or no findings as the source states them, for the method shown. Binding seen in cells or lysates may run through a third protein. Binding can be weak; no strength is given. Tags and fused reporters may be left off the sequences shown.

B1: OsNCED1-YFP^C (enzyme, UniProt Q6YVJ0 81-638)
chain: AKTKTTRTVIATTNGRAAPSQSRPRRRPAPAAAASAASLPMTFCNALEEVINTFIDPPALRPAVDPRNVLTSNFVPVDELPPTPCPVVRGAIPRCLAGGAYIRNGPNPQHLPRGPHHLFDGDGMLHSLLLPSPASSGDDPVLCSRYVQTYKYLVERDAGAPVLPNVFSGFHGVAGMARGAVVAARVLTGQMNPLEGVGLANTSLAYFAGRLYALGESDLPYAVRVHPDTGEVTTHGRCDFGGRLVMGMTAHPKKDPVTGELFAFRYGPVPPFVTYFRFDPAGNKGADVPIFSVQQPSFLHDFAITERYAIFPEIQIVMKPMDMVVGGGSPVGSDPGKVPRLGVIPRYATDESEMRWFEVPGFNIMHSVNAWEEAGGEELVLVAPNVLSIEHALEHMELVHSCVEKVRINLRTGVVTRTPLAAGNFDFPVINPAFLGRRNRYGYFGVGDPAPKIGGVAKLDFDRAGEGDCTVAQRDFGPGCFAGEPFFVADDVEGNGNEDDGYLVCYVHDEATGENRFVVMDARSPDLEIVAEVQLPGRVPYGFHGLFVTQAELQSQHQ
For the molecule B1, the binding result was “binds”.
